Measurements: PubChem BioAssay AID504834 (National Center for Advancing Translational Sciences (NCATS), 2011)
Out of some 320,000 compounds screened, about 22,000 (6.9%) were called active. Inconclusive means that the source gave no clear call. Such entries were picked first, then a sample of the others. Calls follow the shape of the dose curve; as a rule, active = well fitted inhibition curve with a large enough effect; inconclusive = small, poorly fitted or top-dose-only effect, or another doubt; inactive = no such curve, though single readings can be large or run the other way. Where the call is inconclusive, the potency comes from a doubtful curve fit. Where a SMILES comes first, the peptide text is derived from it. The star is where a group is joined. Boc = CC(C)(C)OC(=O)*

experiment: Primary qHTS for delayed death inhibitors of the malarial parasite plastid, 96 hour incubation; conditions: P. falciparum luciferase reporter growth; series mostly up to 28.7 µM; activity change, negative = inhibition: at the top concentration
How it was run: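 Erythrocytes infected with luciferase-expressing P. falciparum were dispensed at 2% hematocrit and 0.05% parasitemia (final), then incubated with compounds 96 hours at 37 C in 5% CO2. Luminescence after detection reagent addition reported growth.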
% is scaled to controls: 0 for no effect and ±100 for the full control effect; potency is read from the fitted curve at half-maximal effect.

SMILES	Potency	activity change, negative = inhibition
CCOc1cc(/C=N/Nc2nc(-c3cccs3)c(NC(C)=O)s2)ccc1O	inconclusive: 11.7 µM [inhibitor, single point]	
O=C(c1cc(S(=O)(=O)N2CCCCC2)ccc1F)N1CCCCC1	inconclusive: 7.38 µM [inhibitor, single point]	
CCc1ccc(CN2CCC(Oc3ccc(C(=O)NCc4ccccn4)cc3)CC2)o1	inconclusive: 18.5 µM [inhibitor, single point]	
CC(C(=O)Nc1ccc2[nH]c(=O)[nH]c2c1)N1CCN(Cc2ccc3c(c2)OCO3)CC1 (configuration not stated)	inconclusive: 13.1 µM [inhibitor, single point]	
CCc1ccccc1NC1=NCC(=O)N1Cc1ccc(OC)cc1	inconclusive: 10.4 µM [inhibitor, single point]	
Cc1cc(Cl)ccc1OCCCC(=O)N1CCN(S(=O)(=O)c2ccccc2)CC1		inactive: -10.6%
O=C(NCc1ccco1)/C(=C/c1ccc(C(F)(F)F)cc1)c1nc2ccccc2[nH]1	inconclusive: 18.5 µM [inhibitor, single point]	
COc1ccc(NC(=O)CSc2n[nH]c(-c3ccccn3)n2)cc1	inconclusive: 4.65 µM [inhibitor, partial curve]	
CCCn1c(C(C)NC(=O)c2ccccc2)n[nH]c1=S (configuration not stated)	inconclusive: 0.415 µM [inhibitor, full curve, poor fit]	
CCN(CC)CCC(c1cc(OC)c(OC)c(OC)c1)c1c(OC)cc(OC)c2ccc(=O)oc12 (configuration not stated)	inconclusive: 18.5 µM [inhibitor, single point]	
CC(=O)c1cc(NC(=O)c2ccc([N+](=O)[O-])cc2)c(=O)oc1C		inactive: 11%
CN1CCN(C(=O)CSc2nnc(COc3ccc(Cl)cc3)o2)CC1		inactive: -13.8%
CCC(=O)C1CCCN(C(=O)c2ccc(OC3CCN(C(=O)CCOC)CC3)cc2)C1 (configuration not stated)		inactive: 19.7%
CCOC(=O)c1csc(NC(=O)CSc2nnnn2CC)n1	inconclusive: 4.15 µM [inhibitor, partial curve, poor fit]	
Cc1cc(C)n(-c2nc(NCCN(C)C)c3c4c(sc3n2)COC(C)(C)C4)n1	inconclusive: 11.7 µM [inhibitor, single point]	
Cc1cc(=O)n(CCc2ccccc2)c(O)c1C#N		inactive: 10.7%
O=C(NC1CCSC1)c1cccc(Cl)c1 (configuration not stated)		inactive: -8.44%
O=C(NCCC(c1ccccc1)c1ccccc1)c1cccs1	inconclusive: 1.31 µM [inhibitor, partial curve, poor fit]	
CCOc1ccc(-n2cc(C(=O)NCc3ccco3)c3cc(OC)c(OC)cc3c2=O)cc1		inactive: 24.5%
COC(=O)Cc1ccc(NC(=S)NCCCN2CCOCC2)cc1	inconclusive: 11.7 µM [inhibitor, single point]	
CC(=O)Nc1c(C(=O)N2CCN(c3ccccn3)CC2)cnn1-c1ccc(C)cc1		inactive: -18.3%

2 neighbouring entries from above, for reference:
SMILES	Potency	activity change, negative = inhibition
O=C(c1cc(S(=O)(=O)N2CCCCC2)ccc1F)N1CCCCC1	inconclusive: 7.38 µM [inhibitor, single point]	
CCc1ccc(CN2CCC(Oc3ccc(C(=O)NCc4ccccn4)cc3)CC2)o1	inconclusive: 18.5 µM [inhibitor, single point]	

The list goes on:

SMILES	Potency	activity change, negative = inhibition
O=C(Nc1ncc(S(=O)(=O)c2ccc([N+](=O)[O-])cc2)s1)c1ccccc1F		inactive: 9.7%
CCc1nc(N)nc2c1C(=O)CC(C)(C)C2	inconclusive: 2.08 µM [inhibitor, full curve, poor fit]	
CCOc1ccccc1OCC(=O)Nc1nc2ccccc2[nH]1		inactive: -2.13%
CC1=N/C(=C\c2ccc(OC(C)C)cc2)C(=O)N1c1ccc(C(=O)O)cc1	inconclusive: 0.147 µM [inhibitor, full curve, poor fit]	
O=C(Nc1cccnc1)C1(c2ccc(Cl)cc2)CCCC1	inconclusive: 13.1 µM [inhibitor, single point]	
CCc1ccc(CNC(=O)C2Cc3cc(S(=O)(=O)N4CCCC4)ccc3N2C(C)=O)cc1 (configuration not stated)	inconclusive: 10.4 µM [inhibitor, partial curve]	
Cn1c(=O)oc2cc(S(=O)(=O)N3CCC(C(=O)NCc4cccs4)CC3)ccc21	inconclusive: 18.5 µM [inhibitor, single point]	
Cc1ccc(SC[C@H](Cc2ccccc2)N2CC[C@@H](C)CCC2=O)cc1	inconclusive: 2.62 µM [inhibitor, partial curve, poor fit]	
CCCCOc1ccc(-c2c(C(=O)Nc3ccccc3)c(C)[nH]c(=S)c2C#N)cc1	inconclusive: 13.1 µM [inhibitor, single point]	
O=C(NCc1ccc2c(c1)OCO2)c1cc2n(n1)C(C(F)(F)F)CC(c1ccc3c(c1)OCO3)N2 (configuration not stated)	inconclusive: 1.17 µM [inhibitor, full curve, poor fit]	
CCC(C)C(NC(=O)OC(C)(C)C)C(=O)NC(CC(C)C)C(N)=O (stereo not drawn) (Boc-Ile-Leu-NH2; configuration not given here)	inconclusive: 18.5 µM [inhibitor, single point]	
C#CCN1CCN(c2cccc(C(F)(F)F)c2)CC1		inactive: 20.3%
CCOc1ccc(-c2n[nH]c(=S)n2Cc2ccccc2)cc1	inconclusive: 18.5 µM [inhibitor, single point]	
Cn1cnc([N+](=O)[O-])c1Sc1n[nH]c(N)n1	inconclusive: 5.86 µM [inhibitor, partial curve, poor fit]	
C=CCn1c(SCC(=O)Nc2ccccc2C)nc2sc(C)c(C)c2c1=O	inconclusive: 10.4 µM [inhibitor, single point]	
COc1cccc(CN2C[C@]34C=C[C@@H](C[C@@H]3S2(=O)=O)O4)c1		inactive: 34.8%
O=C(O)c1ccc2c(c1)C(=O)N([C@H](Cc1ccc(Cl)cc1)C(=O)O)C2=O		inactive: 0.357%
COc1cccc(-c2c(-c3cc(OC)cc(OC)c3)n(C)c3ccc(-c4ccc5[nH]ccc5c4)cc23)c1	inconclusive: 2.33 µM [inhibitor, partial curve]	
O=C(N/N=C/c1ccc(Cl)c([N+](=O)[O-])c1)c1ccc2nc[nH]c2c1	inconclusive: 11.7 µM [inhibitor, single point]	
COC(=O)c1ccc2c(=O)n(CCN3CCOCC3)c(SCC(=O)C(C)(C)C)nc2c1	active: 13.1 µM	
Cc1cc(C)cc(OCC(=O)Nc2ccc(CN3CCCCC3)cc2)c1	inconclusive: 11.7 µM [inhibitor, single point]	
